Screen size: about 290,000 compounds; about 110 (0.038%) were called active. Inconclusive means that the source gave no clear call. Such entries were picked first, then a sample of the others. Calls come from the whole dose curve; as a rule, active = well fitted inhibition curve with a large enough effect in the polarisation, with a control signal flat (not every such curve was filed as active); inconclusive = small, poorly fitted or top-dose-only effect, or effect the other way, or a change in a side signal; inactive = no such curve, though single readings can be large or run the other way; the % refers to the polarisation. A potency beside an inconclusive call is a rough fit, not a confirmed value. A note “side channel” means that the fit belongs to a control or component signal, not to the main read-out.
Target: Histone-lysine N-methyltransferase 2A (Homo sapiens) (UniProt Q03164)
Test: qHTS Fluorescence Polarization Assay for Inhibitors of MLL CXXC domain - DNA interaction
Conditions: MLL-CXXC / FITC-HOXA9 DNA fluorescence polarization; activity change, negative = inhibition: at 115 µM (top of the series)
Summary of the method: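 Purified MLL-CXXC (added from a 7 uM solution) was preincubated 5 min at ambient with pinned compounds in 50 mM Tris-HCl pH 7.5, 50 mM NaCl, 1 mM DTT, 0.05% BSA. Fluorescein-labeled HOX-A9 DNA (50 nM solution) followed, 30 min, then polarization read.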
Potency is the fitted concentration of half-maximal effect.

By UniProt entry, the sequences of proteins in these tests, tags left out.
UniProt Q03164, whole entry, looked up: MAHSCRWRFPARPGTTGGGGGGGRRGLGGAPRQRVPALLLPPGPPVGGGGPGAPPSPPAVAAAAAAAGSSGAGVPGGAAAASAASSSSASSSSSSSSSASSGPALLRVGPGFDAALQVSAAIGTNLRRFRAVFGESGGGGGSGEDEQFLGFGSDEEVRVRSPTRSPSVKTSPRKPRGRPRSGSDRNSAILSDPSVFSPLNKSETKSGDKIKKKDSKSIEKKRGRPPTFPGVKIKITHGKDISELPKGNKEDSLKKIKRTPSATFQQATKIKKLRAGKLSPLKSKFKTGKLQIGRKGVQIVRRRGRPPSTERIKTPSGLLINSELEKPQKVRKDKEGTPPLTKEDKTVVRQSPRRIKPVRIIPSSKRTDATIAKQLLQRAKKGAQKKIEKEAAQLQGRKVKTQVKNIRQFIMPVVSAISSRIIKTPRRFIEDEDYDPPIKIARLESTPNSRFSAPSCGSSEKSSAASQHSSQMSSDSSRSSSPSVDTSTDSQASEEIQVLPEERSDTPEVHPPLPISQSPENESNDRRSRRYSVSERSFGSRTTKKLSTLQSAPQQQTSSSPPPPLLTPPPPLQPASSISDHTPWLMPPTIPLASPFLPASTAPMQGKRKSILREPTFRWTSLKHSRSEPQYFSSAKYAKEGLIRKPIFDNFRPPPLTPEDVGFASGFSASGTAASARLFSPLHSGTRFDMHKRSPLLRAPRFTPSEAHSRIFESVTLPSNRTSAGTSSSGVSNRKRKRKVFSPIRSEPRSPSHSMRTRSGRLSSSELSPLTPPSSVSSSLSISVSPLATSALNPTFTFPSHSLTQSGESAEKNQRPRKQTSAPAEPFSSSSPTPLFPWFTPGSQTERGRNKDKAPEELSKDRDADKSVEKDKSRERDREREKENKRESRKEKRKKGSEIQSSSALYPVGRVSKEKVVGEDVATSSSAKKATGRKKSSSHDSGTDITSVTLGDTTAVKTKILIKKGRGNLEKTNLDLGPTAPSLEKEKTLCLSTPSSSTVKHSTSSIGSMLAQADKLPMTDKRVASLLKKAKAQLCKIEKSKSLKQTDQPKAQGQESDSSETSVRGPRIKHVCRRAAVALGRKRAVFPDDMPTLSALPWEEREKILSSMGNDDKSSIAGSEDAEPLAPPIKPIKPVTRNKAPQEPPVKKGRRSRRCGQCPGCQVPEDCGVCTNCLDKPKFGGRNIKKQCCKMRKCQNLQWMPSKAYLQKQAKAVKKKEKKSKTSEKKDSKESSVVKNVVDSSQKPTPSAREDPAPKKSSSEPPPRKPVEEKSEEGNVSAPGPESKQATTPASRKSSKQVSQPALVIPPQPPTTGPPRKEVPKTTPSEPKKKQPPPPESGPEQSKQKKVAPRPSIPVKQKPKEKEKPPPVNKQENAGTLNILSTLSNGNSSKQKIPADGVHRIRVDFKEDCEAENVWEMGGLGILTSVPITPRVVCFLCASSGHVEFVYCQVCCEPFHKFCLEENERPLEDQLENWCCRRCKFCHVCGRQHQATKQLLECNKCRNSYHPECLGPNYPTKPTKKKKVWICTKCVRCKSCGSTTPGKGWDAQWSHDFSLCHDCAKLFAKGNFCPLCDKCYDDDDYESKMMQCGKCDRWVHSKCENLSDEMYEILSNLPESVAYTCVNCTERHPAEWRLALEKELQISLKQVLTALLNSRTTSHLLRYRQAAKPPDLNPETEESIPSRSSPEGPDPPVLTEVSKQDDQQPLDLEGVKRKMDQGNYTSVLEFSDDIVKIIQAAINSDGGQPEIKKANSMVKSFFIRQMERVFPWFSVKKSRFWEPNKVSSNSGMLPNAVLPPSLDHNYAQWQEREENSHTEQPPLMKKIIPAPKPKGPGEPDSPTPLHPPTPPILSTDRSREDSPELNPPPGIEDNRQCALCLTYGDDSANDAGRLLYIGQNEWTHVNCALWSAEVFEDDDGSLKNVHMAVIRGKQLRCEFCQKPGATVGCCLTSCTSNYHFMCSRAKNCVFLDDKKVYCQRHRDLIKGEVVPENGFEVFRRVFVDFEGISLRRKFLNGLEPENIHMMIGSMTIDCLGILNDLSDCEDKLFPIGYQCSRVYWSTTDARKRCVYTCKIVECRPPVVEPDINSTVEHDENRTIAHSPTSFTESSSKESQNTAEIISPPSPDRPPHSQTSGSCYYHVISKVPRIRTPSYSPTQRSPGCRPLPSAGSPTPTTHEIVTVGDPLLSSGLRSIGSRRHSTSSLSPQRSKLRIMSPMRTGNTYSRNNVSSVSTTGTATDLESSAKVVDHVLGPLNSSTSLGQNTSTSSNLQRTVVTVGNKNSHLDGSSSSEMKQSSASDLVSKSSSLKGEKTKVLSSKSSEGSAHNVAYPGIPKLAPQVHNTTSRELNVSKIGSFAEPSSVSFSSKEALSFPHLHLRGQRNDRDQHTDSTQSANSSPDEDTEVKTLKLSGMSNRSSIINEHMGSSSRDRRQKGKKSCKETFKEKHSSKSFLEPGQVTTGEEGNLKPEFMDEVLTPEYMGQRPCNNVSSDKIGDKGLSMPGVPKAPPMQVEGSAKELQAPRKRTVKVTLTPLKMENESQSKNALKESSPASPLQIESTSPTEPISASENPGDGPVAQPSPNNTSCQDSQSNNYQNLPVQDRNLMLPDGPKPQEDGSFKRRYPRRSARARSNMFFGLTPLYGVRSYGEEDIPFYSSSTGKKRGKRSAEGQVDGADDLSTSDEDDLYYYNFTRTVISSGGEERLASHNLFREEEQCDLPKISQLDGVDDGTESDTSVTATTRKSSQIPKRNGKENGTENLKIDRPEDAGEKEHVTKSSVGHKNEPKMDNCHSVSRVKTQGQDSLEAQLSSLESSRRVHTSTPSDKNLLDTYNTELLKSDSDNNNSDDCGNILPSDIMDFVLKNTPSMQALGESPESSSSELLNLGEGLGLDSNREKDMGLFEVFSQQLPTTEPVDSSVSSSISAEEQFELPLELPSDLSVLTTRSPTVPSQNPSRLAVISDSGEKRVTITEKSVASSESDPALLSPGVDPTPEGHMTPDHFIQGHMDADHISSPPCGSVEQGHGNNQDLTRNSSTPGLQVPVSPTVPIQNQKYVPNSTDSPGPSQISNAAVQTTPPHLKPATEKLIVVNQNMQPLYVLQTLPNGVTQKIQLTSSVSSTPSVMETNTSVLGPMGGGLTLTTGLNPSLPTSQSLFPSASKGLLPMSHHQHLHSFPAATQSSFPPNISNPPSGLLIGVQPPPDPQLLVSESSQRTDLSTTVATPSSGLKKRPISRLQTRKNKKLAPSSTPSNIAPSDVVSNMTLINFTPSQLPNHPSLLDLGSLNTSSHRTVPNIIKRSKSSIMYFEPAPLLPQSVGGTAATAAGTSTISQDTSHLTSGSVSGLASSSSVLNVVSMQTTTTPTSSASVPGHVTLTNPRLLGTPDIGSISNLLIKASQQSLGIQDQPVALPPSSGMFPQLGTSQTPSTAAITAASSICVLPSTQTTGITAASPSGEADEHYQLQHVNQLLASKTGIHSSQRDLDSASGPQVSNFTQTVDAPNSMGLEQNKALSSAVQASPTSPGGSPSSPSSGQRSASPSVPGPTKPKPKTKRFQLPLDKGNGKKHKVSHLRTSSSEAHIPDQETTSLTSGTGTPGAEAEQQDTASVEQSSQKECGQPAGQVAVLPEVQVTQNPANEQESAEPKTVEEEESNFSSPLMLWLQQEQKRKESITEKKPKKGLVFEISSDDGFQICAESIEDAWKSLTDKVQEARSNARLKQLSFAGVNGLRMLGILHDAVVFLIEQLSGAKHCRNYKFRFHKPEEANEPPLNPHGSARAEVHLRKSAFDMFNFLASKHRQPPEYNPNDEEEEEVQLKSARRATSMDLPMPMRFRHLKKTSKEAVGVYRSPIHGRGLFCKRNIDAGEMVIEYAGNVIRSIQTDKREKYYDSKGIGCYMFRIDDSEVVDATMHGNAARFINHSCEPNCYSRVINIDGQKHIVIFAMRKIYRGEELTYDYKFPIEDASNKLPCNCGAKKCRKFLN

SMILES | Potency | activity change, negative = inhibition
CN1C(=O)C(=Cc2ccccc2Oc2ccc(Cl)c(F)c2)C(=O)N(C)C1=O | inconclusive: 20 µM [inhibitor, partial curve] | 
COc1ccc(OCCOc2cccc(C=C3C(=O)NC(=O)NC3=O)c2)cc1 | inconclusive: 28.2 µM [inhibitor, partial curve] | 
CN(C)C(=O)Oc1ccc(-c2cn3cc(C(F)(F)F)ccc3n2)cc1 |  | inactive: 7.5%
Cc1cccc(N2C(=O)/C(=C/c3ccc(CN(CCC#N)S(C)(=O)=O)o3)C(=O)NC2=S)c1 | inconclusive: 35.5 µM [fluorescent, side channel, single point] | 
O=C(C[N+]12CCC(CC1)C(CO)C2)c1ccc(Br)cc1 (stereo not given) | inconclusive: 70.8 µM [fluorescent, side channel, single point] | 
CCNCCNc1ccc([N+](=O)[O-])c2cccnc12 | inconclusive: 178 µM [quencher, side channel, partial curve, poor fit] | 
CCOC(=O)c1cc(CC)sc1/N=C/c1c(O)[nH]c(=S)[nH]c1=O | inconclusive: 39.8 µM [fluorescent, side channel, single point] | 
CCCN(CCC)[C@@H]1CCc2c(F)ccc(O)c2C1 | inconclusive: 15.8 µM [inhibitor, partial curve, poor fit] | 
O=c1[nH]c(=O)n(Cc2ccccc2Cl)c(O)c1/C=C1/C=CC=N1 | inconclusive: 8.91 µM [fluorescent, side channel, partial curve] | 
Cc1cc(/C=C2\C(=O)NC(=O)N(Cc3ccccc3)C2=O)c(C)n1-c1ccc(Cl)c(C(=O)O)c1 | inconclusive: 31.6 µM [inhibitor, single point] | 
CCOc1ccccc1-n1c(O)c(C=Nc2ccc(N(CC)CC)cc2)c(=O)[nH]c1=O | inconclusive: 70.8 µM [fluorescent, side channel, single point] | 
CN1C[C@H](C(=O)N[C@]2(C)O[C@@]3(O)[C@@H]4CCCN4C(=O)[C@H](Cc4ccccc4)N3C2=O)C=C2c3cccc4[nH]cc(c34)C[C@H]21 | inconclusive: 50.1 µM [fluorescent, partial curve] | 
Cn1c(=O)c2c(nc(N/N=C/c3c(O)n(-c4ccccc4)c(=S)[nH]c3=O)n2C)n(C)c1=O |  | inactive: 22.7%
CC(C)CN(CC(C)C)c1ccc(C=C2C(=O)NC(=S)NC2=O)cc1[N+](=O)[O-] | inconclusive: 44.7 µM [inhibitor, partial curve] | 
Cc1cc(/C=C2\C(=O)NC(=O)N(Cc3ccccc3Cl)C2=O)c(C)n1-c1ccc(C(=O)O)cc1 | inconclusive: 22.4 µM [inhibitor, partial curve] | 
O[C@H]1[C@H](O)[C@@H](O)CN2CC[C@H](O)[C@H]12 |  | inactive: 3.45%
Cc1ccccc1N1C(=O)NC(=O)/C(=C/c2ccc(N3CCOCC3)o2)C1=O | inconclusive: 28.2 µM [fluorescent, side channel, partial curve] | 
COc1cc2c(cc1O)C[C@H]1NCCc3cc4c(c-2c31)OCO4 | inconclusive: 50.1 µM [quencher, side channel, partial curve] | 
Cc1cc(/C=C2\C(=O)NC(=S)N(C)C2=O)c(C)n1C1CCCCC1 | inconclusive: 70.8 µM [fluorescent, side channel, single point] | 
COc1cc2c(cc1OC)-c1c3c(cc4c1[C@@H](C2)N(C)CC4)OCO3 | inconclusive: 31.6 µM [quencher, side channel, single point] | 
Cc1ccc(/C=C2\C(=O)NC(=O)N(Cc3ccccc3Cl)C2=O)o1 | inconclusive: 70.8 µM [fluorescent, side channel, single point] | 
O=c1[nH]c(O)c(N=Nc2ccc([N+](=O)[O-])cc2)c(=O)[nH]1 | inconclusive: 100 µM [fluorescent, side channel, partial curve, poor fit] | 
CCN1CCN(Cc2nc3ccc([N+](=O)[O-])cc3c(=O)n2-c2ccccc2F)CC1 | inconclusive: 11.2 µM [fluorescent, side channel, single point] | 
CN1/C(=C\C=C2C(=O)NC(=O)NC2=O)C(C)(C)c2ccccc21 | inconclusive: 11.2 µM [fluorescent, side channel, full curve] | 
CC1CCCC(C2(O)C(=O)Nc3ccccc32)C1=O (stereo not given) |  | inactive: -2.9%

Reformatted: 2 of the compounds above
SMILES,Potency,"activity change, negative = inhibition"
CCNCCNc1ccc([N+](=O)[O-])c2cccnc12,"inconclusive: 178 µM [quencher, side channel, partial curve, poor fit]",
Cn1c(=O)c2c(nc(N/N=C/c3c(O)n(-c4ccccc4)c(=S)[nH]c3=O)n2C)n(C)c1=O,,inactive: 22.7%

Part of the list above in order of number of heavy atoms, smallest number first.
SMILES | Potency | activity change, negative = inhibition
CCCN(CCC)[C@@H]1CCc2c(F)ccc(O)c2C1 | inconclusive: 15.8 µM [inhibitor, partial curve, poor fit] | 
Cc1ccc(/C=C2\C(=O)NC(=O)N(Cc3ccccc3Cl)C2=O)o1 | inconclusive: 70.8 µM [fluorescent, side channel, single point] | 
CC(C)CN(CC(C)C)c1ccc(C=C2C(=O)NC(=S)NC2=O)cc1[N+](=O)[O-] | inconclusive: 44.7 µM [inhibitor, partial curve] | 

The list continues.

SMILES | Potency | activity change, negative = inhibition
CCCCCSc1cc(OC)c(CCN)cc1OC |  | inactive: 0.196%
CN1C(=O)NC(=O)/C(=C\c2ccc([N+](=O)[O-])o2)C1=O | inconclusive: 31.6 µM [fluorescent, side channel, single point] | 
O=c1cccc2n1C[C@@H]1C[C@@H]2CN(CC(O)c2ccc([N+](=O)[O-])cc2)C1 (stereo not given in full) | inconclusive: 12.6 µM [quencher, side channel, single point] | 
Cc1ccsc1/C=C1\C(=O)NC(=S)N(C)C1=O | inconclusive: 31.6 µM [inhibitor, partial curve] | 
CC(C)OC(=O)c1c(N)n(CC2CCCO2)c2nc3ccccc3nc12 (stereo not given) |  | inactive: 24.8%
Nc1c(C(=O)NCc2ccco2)c2nc3ccccc3nc2n1CCN1CCCCC1 | inconclusive: 35.5 µM [quencher, side channel, partial curve] | 
Cn1cccc1/C=C1\C(=O)NC(=O)N(Cc2ccccc2)C1=O | inconclusive: 35.5 µM [inhibitor, partial curve] | 
Cc1cc(C)cc(-n2c(O)c(C=Nc3ccc(N4CCOCC4)cc3)c(=O)[nH]c2=S)c1 | inconclusive: 31.6 µM [fluorescent, side channel, partial curve] | 
C[C@@H]1O[C@H](C[N+](C)(C)C)C[C@H]1O |  | inactive: -4.16%
FC(F)(F)c1ccccc1N1CC1c1ccncc1 (stereo not given) | inconclusive: 35.5 µM [fluorescent, side channel, single point] | 
CC(C)C[C@H]1C(=O)N2CCCC2[C@]2(O)O[C@](NC(=O)[C@@H]3C=C4c5cccc6[nH]cc(c56)CC4N(C)C3)(C(C)C)C(=O)N12 (stereo not given in full) | inconclusive: 25.1 µM [inhibitor, partial curve] | 
CC(C)[C@H]1C(=O)N2CCC[C@H]2[C@]2(O)O[C@](NC(=O)[C@@H]3C=C4c5cccc6[nH]cc(c56)C[C@H]4N(C)C3)(C(C)C)C(=O)N12 | inconclusive: 35.5 µM [fluorescent, single point] | 
O=C1NC(=O)N(c2ccc3c(c2)OCO3)C(=O)/C1=C\c1ccc(N2CCCCC2)o1 | inconclusive: 39.8 µM [fluorescent, partial curve] | 
NC(=Nc1ccccc1)Nc1ccccc1 | inconclusive: 31.6 µM [fluorescent, side channel, full curve] | 
CCCN1CCc2cc(O)cc3c2C1Cc1ccc(O)c(O)c1-3 (stereo not given) | inconclusive: 11.2 µM [quencher, side channel, partial curve] | 
C[n+]1c(-c2ccccc2)c2cc(N)ccc2c2ccc(N)cc21 | inconclusive: 4.47 µM [quencher, side channel, full curve] | 
CCOC(=O)C1CCN(Cc2ccc(Cl)nc2)CC1 | inconclusive: 63.1 µM [fluorescent, side channel, partial curve] | 
c1ccc2c(c1)Nc1ccccc1S2 | inactive | 
Cc1cccc(N2C(=O)NC(=O)/C(=C\C=C\c3ccco3)C2=O)c1 |  | inactive: -29.9%
CCOP(=O)(OCC)/C(C#N)=C/c1ccc(Br)cc1 | inconclusive: 8.91 µM [fluorescent, side channel, single point] | 
COC(=O)C1=Nc2ccccc2/C1=C\c1c(O)n(-c2ccc(Br)cc2)c(=O)[nH]c1=O | inconclusive: 89.1 µM [inhibitor, single point] | 
O=C1NC(=O)C(=C/C=C/c2coc3ccc(Br)cc3c2=O)C(=O)N1 | inconclusive: 7.94 µM [fluorescent, side channel, full curve] | 
COc1cc(C=C2C(=O)NC(=O)NC2=O)ccc1OS(=O)(=O)c1ccccc1[N+](=O)[O-] | inconclusive: 31.6 µM [inhibitor, single point] | 
O=C1NC(=S)N(c2ccc(F)cc2)C(=O)/C1=C\c1ccoc1 | inconclusive: 25.1 µM [fluorescent, side channel, partial curve] | 
O=C1NC(=O)N(c2ccc3c(c2)OCO3)C(=O)/C1=C\c1ccsc1 | inconclusive: 28.2 µM [inhibitor, partial curve] | 
